# Reference: PubChem BioAssay AID624297 (National Center for Advancing Translational Sciences (NCATS), 2012)
# Hit rate of the full screen: of about 340,000 compounds, about 6,200 (1.8%) were called active. The shares of active, inactive and inconclusive entries below differ from those in the screen. Calls come from the whole dose curve; as a rule, active = well fitted activation curve with a large enough effect; inconclusive = small, poorly fitted or top-dose-only effect; inactive = no such curve, though single readings can be large or run the other way. Potencies beside an inconclusive call are fits to weak or partial responses and may not hold up.
# Test: A quantitative high throughput screen for small molecules that induce DNA re-replication in SW480 colon adenocarcinoma cells. For re-replication activation: % of control where 0% means no effect. Note: nearly all actives have a fitted effect of over 55% in size.
# Settings: Hoechst DNA content imaging, 48 h; re-replication activation: at 46.1 µM (top of the series) unless noted
# Outline: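 DNA re-replication was detected as more nuclei of elevated Hoechst intensity after 48 hr exposure to compound (23 nL pinned per well of 250 cells).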
# Potency is the fitted concentration of half-maximal effect.
SMILES,re-replication activation,Potency
CCOC(=O)CSc1nnc(-c2ccc(OC)cc2OC)o1,inactive: 4.25%,–
CNc1sc(C(=O)c2ccc(F)cc2)c(N)c1-c1nc2ccccc2s1,–,active: 5.17 µM
COc1ccc(NC(=O)c2cccc(S(=O)(=O)NCc3ccccc3)c2)cc1S(N)(=O)=O,–,"inconclusive: 29.1 µM [activator, single point]"
O=C(NNC(=S)NC(=O)c1cccs1)c1ccc(NC(=O)c2ccccc2)cc1,–,"inconclusive: 18.4 µM [activator, single point]"
O=C(NCC1CCCN1S(=O)(=O)c1cccs1)c1ccccc1F (centres undefined),inactive: -1.24%,–
CCOc1ncccc1C(=O)Nc1ncc(C)s1,inactive: -1.95%,–
c1ccc(CCCNCC2COc3ccccc3O2)cc1 (centres undefined),inactive: -4.36%,–
O=C(Nc1ccc(S(=O)(=O)Nc2cnc3ccccc3n2)cc1)c1ccc(F)cc1,–,active: 7.31 µM
Cc1ccccc1N(C(=O)Cc1ccsc1)C(C(=O)NC1CCCCC1)c1ccc(F)cc1 (centres undefined),inactive: 17.1%,–
c1ccc(-c2cn3nc4c(nc3n2)CCCC4)cc1,–,"inconclusive: 9.2 µM [activator, partial curve, poor fit]"
COc1ccc(CCNC(=O)C(=O)NCC2OCCN2S(=O)(=O)c2ccc(OC)c(OC)c2)cc1 (centres undefined),–,"inconclusive: 18.4 µM [activator, partial curve, poor fit]"
Clc1ccc(-c2nnc(-c3ccccc3)c(-c3c[nH]c4ccccc34)n2)cc1,–,"inconclusive: 29.1 µM [activator, single point]"
COc1ccc(OC)c(N/C(N)=N/c2nc(C)cc(C)n2)c1,–,"inconclusive: 9.2 µM [activator, single point]"
O=C(Nc1ccc(Br)cc1F)c1cccnc1,–,"inconclusive: 18.4 µM [activator, single point]"
CCOc1cccc(C2/C(=C(/O)c3ccc4c(c3)CC(C)O4)C(=O)C(=O)N2Cc2cccnc2)c1 (centres undefined),–,"inconclusive: 29.1 µM [activator, single point]"
NC(=O)C1CCN(C(=O)COc2ccc(S(=O)(=O)NCc3ccccc3)cc2Cl)CC1,inactive: -1.12%,–
CCCc1nnc(NC(=O)CSc2nc3ccccc3[nH]2)s1,–,"inconclusive: 29.1 µM [activator, single point]"
Cc1ccc(-c2csc(=Nc3cccnc3)n2CCCN2CCCC2=O)cc1C,inactive: 9.5%,–
Cn1nnnc1SCC(=O)N1c2ccccc2Sc2ccccc21,inactive: -2.61%,–
COc1ccccc1N1CC(C(=O)Nc2nnc(SCC(=O)N3CCCC3)s2)CC1=O (centres undefined),–,"inconclusive: 29.1 µM [activator, single point]"
Brc1ccc(-n2cnc(-c3ccccc3)c2)cc1,–,"inconclusive: 29.1 µM [activator, single point]"
CCOc1cc(C(=O)OCC(=O)Nc2ccc(SC(F)F)cc2)cc(OCC)c1OCC,–,"inconclusive: 18.4 µM [activator, single point]"

# Whole records as entered above. Values in the order: re-replication activation | Potency
# O=C(Nc1ccc(S(=O)(=O)Nc2cnc3ccccc3n2)cc1)c1ccc(F)cc1 as listed: – | active: 7.31 µM
# CCOc1ncccc1C(=O)Nc1ncc(C)s1 as listed: inactive: -1.95% | –
# Cc1ccc(-c2csc(=Nc3cccnc3)n2CCCN2CCCC2=O)cc1C as listed: inactive: 9.5% | –

# Additional records

SMILES,re-replication activation,Potency
COc1cccc(/C=N/NC(=O)CSc2nnc(C)n2-c2ccccc2)c1O,–,"inconclusive: 18.4 µM [activator, single point]"
COc1ccc(NC(=O)c2ccc3nc(-c4ccccc4)c(-c4ccccc4)nc3c2)c(OC)c1,–,"inconclusive: 1.3 µM [activator, partial curve, poor fit]"
COc1ccc2[nH]c3c(c2c1)CCN1C(=O)C(CC(=O)NCC24CC5CC(CC(C5)C2)C4)C[C@H](C(=O)N2CCCCC2)[C@@]31C (some centres undefined),inactive: 0.608%,–
Cc1ccc(NCN2C(=O)C(=O)c3ccccc32)nc1,–,"inconclusive: 23.1 µM [activator, single point]"
COc1ccc(OC)c(C2SCCN2S(C)(=O)=O)c1 (centres undefined),inactive: 1.17%,–
CN(C(=O)c1ccc2c(c1)S(=O)(=O)N=C1CCCCCN12)c1ccccc1,–,"inconclusive: 1.16 µM [activator, single point]"
Cc1sc2ncnc(SCC(=O)NNC(=O)c3ccco3)c2c1C,–,"inconclusive: 6.51 µM [activator, single point]"
CC(=O)c1cc(C#N)c(N2CCN(c3ccccc3)CC2)nc1C,–,"inconclusive: 4.11 µM [activator, full curve, poor fit]"
CN1C(=O)C(O)(CC(=O)c2ccccn2)c2cc(Br)ccc21 (centres undefined),–,"inconclusive: 20.6 µM [activator, single point]"
COc1ccc(OC)c(C2CC(=O)c3c([nH]c(C(=O)OCC4CCCO4)c3C)C2)c1 (centres undefined),–,"inconclusive: 18.4 µM [activator, single point]"
COc1ccc(-n2c(COc3cccc(C)c3)nnc2SCC(=O)O)cc1,inactive: -0.592%,–
Cc1cc(NC(=O)Cc2ccc(Br)cc2)no1,–,"inconclusive: 4.11 µM [activator, single point]"
CC1CCN(C2CCN(S(=O)(=O)c3ccc(F)cc3)CC2)CC1,inactive: -0.711%,–
O=C(CNC(=O)c1ccco1)Nc1ccc(N2CCCCCC2)cc1,–,"inconclusive: 29.1 µM [activator, single point]"
CCn1c(C)nnc1SCC(=O)Nc1ccccc1Cl,–,"inconclusive: 4.11 µM [activator, single point]"
O=C(O)CCCNC(=O)/C(=C\c1ccccc1F)NC(=O)c1ccccc1,–,"inconclusive: 0.291 µM [activator, full curve, poor fit]"
CCC(=O)OCC(=O)[C@@]1(OC(=O)CC)[C@@H](C)C[C@H]2[C@@H]3CCC4=CC(=O)C=C[C@]4(C)[C@@]3(Cl)[C@@H](O)C[C@@]21C,–,"inconclusive: 0.231 µM [activator, single point]"
CCCS/C(N)=N/N=C/c1cc(C)ccc1O,–,"inconclusive: 20.6 µM [activator, single point]"
Cc1ccc(S(=O)(=O)N2[C@@H](c3ccc(Br)cc3)C(C(=O)O)=C[C@H]2C(C)(C)C)cc1,inactive: -12.3% [at 9.22 µM],–
C=C(C)CN=C1NN=C(c2cc(C)n(-c3ccc(C)cc3)c2C)CS1,–,"inconclusive: 16.4 µM [activator, single point]"
CCc1c(C)nc2ncnn2c1Nc1ccc(C(C)=O)cc1,–,"inconclusive: 29.1 µM [activator, single point]"
C=CCn1c(-c2oc3nc(-c4ccccc4)cc(-c4ccccc4)c3c2N)n[nH]c1=S,–,active: 8.2 µM
